The supplement of paper PMC6411743
± gives the standard deviation of the averaged measurements. Some of the results follow.

The chains behind the UniProt entries cited, without tags or fusion partners. Where a name states a change or a piece, a line headed by the entry shows the natural chain unless it says otherwise.
UniProt P04921: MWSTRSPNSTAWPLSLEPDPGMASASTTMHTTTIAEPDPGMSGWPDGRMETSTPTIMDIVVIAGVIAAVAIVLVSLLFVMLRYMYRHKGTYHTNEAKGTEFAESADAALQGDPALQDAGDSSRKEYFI
UniProt O94915: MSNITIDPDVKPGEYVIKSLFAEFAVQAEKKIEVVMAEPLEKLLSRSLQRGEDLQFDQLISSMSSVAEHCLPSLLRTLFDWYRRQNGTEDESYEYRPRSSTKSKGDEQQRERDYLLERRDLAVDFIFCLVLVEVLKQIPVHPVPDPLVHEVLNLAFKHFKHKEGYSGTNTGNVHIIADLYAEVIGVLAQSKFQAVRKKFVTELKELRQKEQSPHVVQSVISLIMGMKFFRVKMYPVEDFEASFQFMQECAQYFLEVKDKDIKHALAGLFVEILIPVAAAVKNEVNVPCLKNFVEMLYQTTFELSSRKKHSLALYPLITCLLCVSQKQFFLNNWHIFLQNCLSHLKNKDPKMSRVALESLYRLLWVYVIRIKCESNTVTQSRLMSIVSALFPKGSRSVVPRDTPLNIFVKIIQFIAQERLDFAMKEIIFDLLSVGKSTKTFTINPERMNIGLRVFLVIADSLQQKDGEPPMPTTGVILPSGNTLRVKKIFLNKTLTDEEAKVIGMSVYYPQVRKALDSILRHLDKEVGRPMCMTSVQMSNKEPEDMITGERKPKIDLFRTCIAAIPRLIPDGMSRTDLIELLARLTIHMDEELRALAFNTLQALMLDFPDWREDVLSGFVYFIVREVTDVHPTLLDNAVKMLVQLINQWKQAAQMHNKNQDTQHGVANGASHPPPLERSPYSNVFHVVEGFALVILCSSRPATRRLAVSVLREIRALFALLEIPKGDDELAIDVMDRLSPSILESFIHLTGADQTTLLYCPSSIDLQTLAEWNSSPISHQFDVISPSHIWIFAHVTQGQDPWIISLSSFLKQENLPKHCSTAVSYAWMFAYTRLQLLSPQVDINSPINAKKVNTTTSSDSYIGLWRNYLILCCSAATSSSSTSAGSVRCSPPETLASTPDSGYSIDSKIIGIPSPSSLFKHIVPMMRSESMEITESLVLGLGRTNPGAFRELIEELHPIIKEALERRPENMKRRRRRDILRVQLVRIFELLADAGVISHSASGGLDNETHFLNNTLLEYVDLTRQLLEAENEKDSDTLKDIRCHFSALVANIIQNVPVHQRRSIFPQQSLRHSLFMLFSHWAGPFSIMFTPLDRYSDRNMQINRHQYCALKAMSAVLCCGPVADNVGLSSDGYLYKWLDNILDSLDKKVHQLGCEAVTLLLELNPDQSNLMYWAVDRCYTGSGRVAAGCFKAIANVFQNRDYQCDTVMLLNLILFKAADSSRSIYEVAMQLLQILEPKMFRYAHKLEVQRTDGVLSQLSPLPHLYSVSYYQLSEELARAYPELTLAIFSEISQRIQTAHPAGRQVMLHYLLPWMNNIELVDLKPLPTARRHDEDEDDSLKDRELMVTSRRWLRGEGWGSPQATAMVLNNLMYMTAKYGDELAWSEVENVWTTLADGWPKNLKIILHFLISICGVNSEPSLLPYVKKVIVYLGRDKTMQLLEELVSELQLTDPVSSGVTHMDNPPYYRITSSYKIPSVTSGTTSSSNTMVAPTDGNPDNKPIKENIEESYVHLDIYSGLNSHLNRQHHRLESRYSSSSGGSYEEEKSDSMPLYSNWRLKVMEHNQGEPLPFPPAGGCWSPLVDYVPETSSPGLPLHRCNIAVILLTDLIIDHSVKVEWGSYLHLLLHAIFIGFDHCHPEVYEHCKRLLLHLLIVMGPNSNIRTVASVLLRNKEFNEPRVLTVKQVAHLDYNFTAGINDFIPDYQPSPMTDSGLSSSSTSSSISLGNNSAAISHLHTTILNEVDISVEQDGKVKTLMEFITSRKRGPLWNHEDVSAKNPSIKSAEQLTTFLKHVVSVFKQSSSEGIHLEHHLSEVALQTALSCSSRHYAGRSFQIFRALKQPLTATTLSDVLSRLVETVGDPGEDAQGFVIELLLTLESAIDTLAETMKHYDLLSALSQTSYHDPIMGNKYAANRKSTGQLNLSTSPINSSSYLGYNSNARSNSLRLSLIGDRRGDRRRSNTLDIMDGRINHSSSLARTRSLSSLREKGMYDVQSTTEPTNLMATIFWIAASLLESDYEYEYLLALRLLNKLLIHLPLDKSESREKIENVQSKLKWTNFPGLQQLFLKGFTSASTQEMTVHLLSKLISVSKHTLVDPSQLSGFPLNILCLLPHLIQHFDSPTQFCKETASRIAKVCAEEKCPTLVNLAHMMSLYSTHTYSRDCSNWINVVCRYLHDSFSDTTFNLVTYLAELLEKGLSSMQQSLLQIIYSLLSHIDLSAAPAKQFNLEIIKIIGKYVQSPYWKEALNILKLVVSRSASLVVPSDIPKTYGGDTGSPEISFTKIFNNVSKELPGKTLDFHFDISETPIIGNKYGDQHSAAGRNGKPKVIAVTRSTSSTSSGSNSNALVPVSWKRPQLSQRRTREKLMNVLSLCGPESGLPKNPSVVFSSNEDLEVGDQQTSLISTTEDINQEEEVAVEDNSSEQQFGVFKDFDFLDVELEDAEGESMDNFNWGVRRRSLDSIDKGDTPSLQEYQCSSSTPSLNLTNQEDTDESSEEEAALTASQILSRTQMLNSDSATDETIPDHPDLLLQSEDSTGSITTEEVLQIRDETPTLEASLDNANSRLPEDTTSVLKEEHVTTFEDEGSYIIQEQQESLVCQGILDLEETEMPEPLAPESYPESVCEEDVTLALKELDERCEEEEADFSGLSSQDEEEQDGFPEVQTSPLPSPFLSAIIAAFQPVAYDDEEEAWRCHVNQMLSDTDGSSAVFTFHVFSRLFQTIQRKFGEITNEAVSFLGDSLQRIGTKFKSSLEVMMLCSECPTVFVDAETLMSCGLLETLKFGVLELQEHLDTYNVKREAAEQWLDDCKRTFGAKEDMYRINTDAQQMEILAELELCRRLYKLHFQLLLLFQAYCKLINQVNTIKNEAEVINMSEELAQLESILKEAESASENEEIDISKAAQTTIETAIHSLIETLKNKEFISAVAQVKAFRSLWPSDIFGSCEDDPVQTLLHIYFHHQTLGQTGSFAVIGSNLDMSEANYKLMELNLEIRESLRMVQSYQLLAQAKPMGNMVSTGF
UniProt O75369, whole entry: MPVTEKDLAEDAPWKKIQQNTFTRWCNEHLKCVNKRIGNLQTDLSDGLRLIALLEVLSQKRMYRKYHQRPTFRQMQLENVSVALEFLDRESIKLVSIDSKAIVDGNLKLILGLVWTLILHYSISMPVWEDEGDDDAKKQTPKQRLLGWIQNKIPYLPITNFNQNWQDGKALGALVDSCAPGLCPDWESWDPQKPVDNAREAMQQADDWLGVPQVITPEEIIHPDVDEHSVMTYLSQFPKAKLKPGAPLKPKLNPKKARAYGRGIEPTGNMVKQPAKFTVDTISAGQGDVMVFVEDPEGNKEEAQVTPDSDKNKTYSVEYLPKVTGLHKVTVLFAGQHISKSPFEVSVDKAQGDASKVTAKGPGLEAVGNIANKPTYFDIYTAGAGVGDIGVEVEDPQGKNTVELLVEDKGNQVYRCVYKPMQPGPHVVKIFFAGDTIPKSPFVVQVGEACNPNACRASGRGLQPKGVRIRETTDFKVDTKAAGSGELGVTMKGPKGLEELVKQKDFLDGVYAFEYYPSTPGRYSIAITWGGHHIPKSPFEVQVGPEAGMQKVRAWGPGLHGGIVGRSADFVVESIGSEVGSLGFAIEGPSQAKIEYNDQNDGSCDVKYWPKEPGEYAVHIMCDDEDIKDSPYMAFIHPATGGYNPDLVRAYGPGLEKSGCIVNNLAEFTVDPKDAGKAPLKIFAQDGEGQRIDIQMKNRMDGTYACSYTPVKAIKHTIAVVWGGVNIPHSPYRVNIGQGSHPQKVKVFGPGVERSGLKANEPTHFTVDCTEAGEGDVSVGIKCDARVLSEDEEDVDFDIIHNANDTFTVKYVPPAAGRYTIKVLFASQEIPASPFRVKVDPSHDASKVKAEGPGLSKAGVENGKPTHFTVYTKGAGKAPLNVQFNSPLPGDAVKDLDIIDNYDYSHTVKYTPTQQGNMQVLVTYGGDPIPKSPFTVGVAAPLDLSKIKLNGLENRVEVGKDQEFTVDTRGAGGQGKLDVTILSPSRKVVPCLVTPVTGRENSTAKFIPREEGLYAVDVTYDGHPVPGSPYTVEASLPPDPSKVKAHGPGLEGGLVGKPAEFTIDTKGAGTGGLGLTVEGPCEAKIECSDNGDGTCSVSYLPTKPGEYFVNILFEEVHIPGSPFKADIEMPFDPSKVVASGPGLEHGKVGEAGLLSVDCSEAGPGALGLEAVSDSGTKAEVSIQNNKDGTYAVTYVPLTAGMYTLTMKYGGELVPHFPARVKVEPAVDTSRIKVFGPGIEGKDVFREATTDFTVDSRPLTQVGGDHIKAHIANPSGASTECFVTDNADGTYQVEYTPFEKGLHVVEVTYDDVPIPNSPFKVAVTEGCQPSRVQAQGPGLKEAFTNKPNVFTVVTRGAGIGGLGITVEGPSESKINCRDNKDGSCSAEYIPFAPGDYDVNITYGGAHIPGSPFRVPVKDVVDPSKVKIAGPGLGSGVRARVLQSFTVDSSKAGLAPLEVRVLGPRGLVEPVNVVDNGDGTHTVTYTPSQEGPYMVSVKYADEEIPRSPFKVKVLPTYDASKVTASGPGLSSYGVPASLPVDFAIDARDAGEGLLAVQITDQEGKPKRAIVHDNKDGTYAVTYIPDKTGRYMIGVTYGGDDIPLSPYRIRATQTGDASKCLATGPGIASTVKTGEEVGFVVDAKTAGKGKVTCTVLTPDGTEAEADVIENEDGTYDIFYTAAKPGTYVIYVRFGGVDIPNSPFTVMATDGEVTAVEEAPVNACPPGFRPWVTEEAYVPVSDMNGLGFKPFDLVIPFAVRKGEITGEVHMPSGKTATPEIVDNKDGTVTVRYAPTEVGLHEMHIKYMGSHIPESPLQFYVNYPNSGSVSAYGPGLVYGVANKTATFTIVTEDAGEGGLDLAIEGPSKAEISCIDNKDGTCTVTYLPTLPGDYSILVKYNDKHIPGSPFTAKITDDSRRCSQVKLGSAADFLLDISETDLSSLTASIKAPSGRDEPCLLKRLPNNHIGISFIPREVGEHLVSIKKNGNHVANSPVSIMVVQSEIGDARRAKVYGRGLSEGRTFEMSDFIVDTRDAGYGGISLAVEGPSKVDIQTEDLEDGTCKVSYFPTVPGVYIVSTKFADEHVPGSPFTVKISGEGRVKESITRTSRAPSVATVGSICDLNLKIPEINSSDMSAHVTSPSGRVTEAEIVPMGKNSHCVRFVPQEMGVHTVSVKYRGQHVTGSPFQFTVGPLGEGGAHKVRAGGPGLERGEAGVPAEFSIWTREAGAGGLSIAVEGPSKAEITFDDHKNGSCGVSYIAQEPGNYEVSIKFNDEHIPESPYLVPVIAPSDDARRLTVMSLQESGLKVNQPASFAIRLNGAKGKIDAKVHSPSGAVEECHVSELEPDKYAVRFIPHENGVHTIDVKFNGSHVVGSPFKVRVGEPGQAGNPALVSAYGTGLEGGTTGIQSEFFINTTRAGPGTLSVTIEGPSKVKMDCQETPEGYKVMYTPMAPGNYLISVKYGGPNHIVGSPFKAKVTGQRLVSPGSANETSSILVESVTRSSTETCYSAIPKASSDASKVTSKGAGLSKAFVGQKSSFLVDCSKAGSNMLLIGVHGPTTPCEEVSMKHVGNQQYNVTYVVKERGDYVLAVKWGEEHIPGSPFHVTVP
UniProt O75330: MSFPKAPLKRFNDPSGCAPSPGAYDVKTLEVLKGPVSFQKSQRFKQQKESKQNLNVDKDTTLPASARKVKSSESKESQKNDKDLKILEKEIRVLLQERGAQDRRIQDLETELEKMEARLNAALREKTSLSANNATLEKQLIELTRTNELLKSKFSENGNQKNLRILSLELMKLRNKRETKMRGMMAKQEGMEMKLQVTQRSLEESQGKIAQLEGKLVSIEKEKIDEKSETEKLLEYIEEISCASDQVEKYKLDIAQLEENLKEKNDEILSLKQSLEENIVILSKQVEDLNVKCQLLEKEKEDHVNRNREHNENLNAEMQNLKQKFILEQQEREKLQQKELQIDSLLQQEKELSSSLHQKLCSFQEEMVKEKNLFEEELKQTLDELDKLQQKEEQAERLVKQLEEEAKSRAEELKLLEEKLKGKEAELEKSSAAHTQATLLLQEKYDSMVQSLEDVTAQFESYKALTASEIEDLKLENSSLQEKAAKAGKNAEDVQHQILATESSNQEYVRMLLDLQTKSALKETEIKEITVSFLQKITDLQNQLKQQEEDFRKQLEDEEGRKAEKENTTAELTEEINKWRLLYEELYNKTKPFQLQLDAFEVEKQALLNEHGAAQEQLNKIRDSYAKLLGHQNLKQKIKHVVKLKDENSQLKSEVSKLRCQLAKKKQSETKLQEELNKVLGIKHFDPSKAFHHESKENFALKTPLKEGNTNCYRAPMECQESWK

Compound: Nc1nc2c(ncn2[C@@H]2O[C@H](COP(=O)(O)OP(=O)(O)OP(=O)(O)O)[C@@H](O)[C@H]2O)c(=O)[nH]1 [guanosine triphosphate]
Assay: NP40-soluble protein abundance relative to vehicle (solubility fold change) (ratio); higher = more soluble protein in presence of GTP
Outline: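 In three independent experiments, Jurkat crude lysate made by Dounce homogenisation was treated for 10 min at room temperature and then 3 min at 37 °C with eight concentrations ranging from 0.1 to 10 mM. It was then solubilised with 0.8% NP40 plus benzonase for 60 min at 4 °C and ultracentrifuged. The supernatant was TMT-labelled for LC-MS/MS, and each value is the fold change against the detergent-processed vehicle for the same replicate, using vsn-normalised intensities.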

Target	NP40-soluble protein abundance (concentration: 0.1mM)	NP40-soluble protein abundance (concentration: 0.5mM)	NP40-soluble protein abundance (concentration: 1mM)	NP40-soluble protein abundance (concentration: 2mM)	NP40-soluble protein abundance (concentration: 4mM)	NP40-soluble protein abundance (concentration: 6mM)	NP40-soluble protein abundance (concentration: 8mM)	NP40-soluble protein abundance (concentration: 10mM)
CAT (UniProt P04040)	1.03 ± 0.016	1.04 ± 0.041	0.978 ± 0.01	0.973 ± 0.023	0.965 ± 0.014	0.941 ± 0.022	0.941 ± 0.022	0.905 ± 0.013
UniProt O94966-6|O94966-7	1.05 ± 0.056	1.09 ± 0.058	1.01 ± 0.042	1.01 ± 0.064	1 ± 0.042	1 ± 0.041	0.977 ± 0.043	0.951 ± 0.043
KBTBD11 (UniProt O94819)	1.107 ± 0.0075	1.038 ± 0.0096	0.988 ± 0.096	1.15 ± 0.02	0.958 ± 0.091	0.981 ± 0.017	1.04 ± 0.029	0.924 ± 0.044
ERAL1 (UniProt O75616)	1.07 ± 0.05	1.08 ± 0.068	1.08 ± 0.038	1.17 ± 0.14	1.23 ± 0.17	1.19 ± 0.14	1.13 ± 0.16	1.14 ± 0.08
UniProt O95104 and related entries	1.11 ± 0.029	1.25 ± 0.13	1.29 ± 0.13	1.29 ± 0.14	1.27 ± 0.13	1.26 ± 0.12	1.33 ± 0.2	1.33 ± 0.19
TFRC (UniProt P02786)	0.964 ± 0.047	0.943 ± 0.045	0.941 ± 0.051	0.893 ± 0.041	0.908 ± 0.032	0.898 ± 0.039	0.899 ± 0.041	0.861 ± 0.043
UniProt O94842 and related entries	0.959 ± 0.052	0.929 ± 0.093	0.956 ± 0.023	0.962 ± 0.068	0.958 ± 0.051	1.02 ± 0.05	0.984 ± 0.039	0.997 ± 0.075
UniProt O94964-2|O94964 and related entries	1.05 ± 0.11	0.998 ± 0.13	1.139 ± 0.011	1.07 ± 0.025	1.09 ± 0.047	1.03 ± 0.037	1.12 ± 0.072	0.994 ± 0.041
UniProt O95749 and related entries	0.947 ± 0.085	0.968 ± 0.045	0.953 ± 0.078	0.929 ± 0.093	0.914 ± 0.1	0.906 ± 0.067	0.904 ± 0.032	0.946 ± 0.069
TTC4 (UniProt O95801)	0.938 ± 0.074	0.944 ± 0.068	0.921 ± 0.063	0.9 ± 0.085	0.875 ± 0.072	0.878 ± 0.056	0.91 ± 0.085	0.892 ± 0.074
UniProt P04921 and related entries	0.828 ± 0.084	0.79 ± 0.094	0.901 ± 0.074	0.887 ± 0.032	0.917 ± 0.04	0.857 ± 0.072	0.744 ± 0.1	0.881 ± 0.031
UniProt O75175 and related entries	1.01 ± 0.016	1.02 ± 0.046	1.09 ± 0.028	1.18 ± 0.11	1.28 ± 0.12	1.34 ± 0.12	1.4 ± 0.13	1.56 ± 0.27
UniProt O95466-2	0.974 ± 0.05	0.968 ± 0.035	1.01 ± 0.055	0.979 ± 0.058	0.988 ± 0.051	0.977 ± 0.051	0.999 ± 0.043	0.995 ± 0.046
UniProt O75312 and related entries	0.97 ± 0.032	0.931 ± 0.058	0.966 ± 0.044	0.924 ± 0.085	0.932 ± 0.063	0.895 ± 0.062	0.919 ± 0.048	0.912 ± 0.037
RB1 (UniProt P06400)	0.964 ± 0.053	0.933 ± 0.059	0.924 ± 0.053	0.889 ± 0.05	0.915 ± 0.063	0.871 ± 0.059	0.9 ± 0.09	0.869 ± 0.059
FRYL (UniProt O94915)	1.06 ± 0.068	1.07 ± 0.072	1.12 ± 0.14	1.19 ± 0.16	1.21 ± 0.17	1.2 ± 0.2	1.25 ± 0.22	1.21 ± 0.17

As a short view, some entries already given:
Target	NP40-soluble protein abundance (concentration: 0.1mM)	NP40-soluble protein abundance (concentration: 0.5mM)	NP40-soluble protein abundance (concentration: 1mM)	NP40-soluble protein abundance (concentration: 2mM)	NP40-soluble protein abundance (concentration: 4mM)	NP40-soluble protein abundance (concentration: 6mM)	NP40-soluble protein abundance (concentration: 8mM)	NP40-soluble protein abundance (concentration: 10mM)
UniProt O94966-6|O94966-7	1.05 ± 0.056	1.09 ± 0.058	1.01 ± 0.042	1.01 ± 0.064	1 ± 0.042	1 ± 0.041	0.977 ± 0.043	0.951 ± 0.043
KBTBD11 (UniProt O94819)	1.107 ± 0.0075	1.038 ± 0.0096	0.988 ± 0.096	1.15 ± 0.02	0.958 ± 0.091	0.981 ± 0.017	1.04 ± 0.029	0.924 ± 0.044

Later entries.

Target	NP40-soluble protein abundance (concentration: 0.1mM)	NP40-soluble protein abundance (concentration: 0.5mM)	NP40-soluble protein abundance (concentration: 1mM)	NP40-soluble protein abundance (concentration: 2mM)	NP40-soluble protein abundance (concentration: 4mM)	NP40-soluble protein abundance (concentration: 6mM)	NP40-soluble protein abundance (concentration: 8mM)	NP40-soluble protein abundance (concentration: 10mM)
UniProt P06576 and related entries	0.981 ± 0.023	1.02 ± 0.028	1.05 ± 0.025	1.04 ± 0.029	1.04 ± 0.035	1.06 ± 0.038	1.06 ± 0.074	1.05 ± 0.067
ASS1 (UniProt P00966)	1.06 ± 0.083	1.08 ± 0.1	1.02 ± 0.027	0.991 ± 0.04	1.02 ± 0.05	0.976 ± 0.029	0.96 ± 0.063	0.94 ± 0.065
UniProt O75369-8|O75369-9|O75369 and related entries	0.958 ± 0.071	0.978 ± 0.064	0.939 ± 0.072	0.902 ± 0.066	0.896 ± 0.063	0.908 ± 0.053	0.925 ± 0.076	0.895 ± 0.071
UniProt O95169 and related entries	1.12 ± 0.18	1.02 ± 0.027	1.26 ± 0.2	1.32 ± 0.055	1.22 ± 0.037	1.259 ± 0.0062	1.33 ± 0.24	1.54 ± 0.24
ALDOA (UniProt P04075)	0.964 ± 0.034	0.971 ± 0.035	0.964 ± 0.046	0.918 ± 0.043	0.911 ± 0.05	0.914 ± 0.03	0.93 ± 0.054	0.911 ± 0.059
HERC2 (UniProt O95714)	0.968 ± 0.087	0.996 ± 0.048	0.887 ± 0.14	0.904 ± 0.15	0.851 ± 0.18	0.899 ± 0.068	0.852 ± 0.095	0.815 ± 0.036
UniProt O75525 and related entries	0.982 ± 0.018	1.02 ± 0.021	1.1 ± 0.066	1.14 ± 0.063	1.17 ± 0.061	1.2 ± 0.047	1.24 ± 0.11	1.27 ± 0.11
FADS2 (UniProt O95864)	1.09 ± 0.093	1.1 ± 0.097	1.02 ± 0.12	1.01 ± 0.13	1.01 ± 0.14	0.95 ± 0.074	0.938 ± 0.11	0.906 ± 0.13
UniProt O94763 and related entries	1.02 ± 0.051	1.07 ± 0.027	1.09 ± 0.072	1.1 ± 0.075	1.13 ± 0.16	1.15 ± 0.11	1.18 ± 0.16	1.17 ± 0.16
UniProt O75410 and related entries	0.936 ± 0.039	0.916 ± 0.086	0.955 ± 0.087	0.905 ± 0.12	0.907 ± 0.092	0.884 ± 0.097	0.93 ± 0.095	0.934 ± 0.089
IDH1 (UniProt O75874)	0.985 ± 0.012	0.9926 ± 0.0038	0.93 ± 0.022	0.911 ± 0.022	0.889 ± 0.037	0.9 ± 0.033	0.888 ± 0.029	0.88 ± 0.055
UniProt O75582 and related entries	1.05 ± 0.079	1.06 ± 0.059	0.965 ± 0.044	0.965 ± 0.068	0.979 ± 0.083	0.965 ± 0.056	0.934 ± 0.031	0.912 ± 0.044
DDAH2 (UniProt O95865)	0.963 ± 0.06	0.944 ± 0.063	0.928 ± 0.058	0.881 ± 0.1	0.859 ± 0.09	0.877 ± 0.1	0.874 ± 0.085	0.85 ± 0.076
UniProt O75330 and related entries	1.03 ± 0.049	0.9475 ± 0.0087	1.08 ± 0.061	1.08 ± 0.041	1.06 ± 0.026	1.05 ± 0.076	1.07 ± 0.016	1.12 ± 0.03
TMCC1 (UniProt O94876)	1.08 ± 0.016	1 ± 0.065	0.955 ± 0.037	0.893 ± 0.033	0.981 ± 0.037	0.901 ± 0.042	0.96 ± 0.058	0.876 ± 0.068
SGPL1 (UniProt O95470)	0.986 ± 0.084	0.984 ± 0.061	0.963 ± 0.013	0.977 ± 0.04	1.04 ± 0.044	0.964 ± 0.028	0.958 ± 0.053	0.948 ± 0.049
